Source: ChEMBL document CHEMBL3988442, “University of Dundee, Small-Polar-MMV Screening Library” (2021).

Protein sequences, listed by entry. Tags and fused reporters are not part of them. Residues count along the entry.
UniProt P9WFT3, whole entry: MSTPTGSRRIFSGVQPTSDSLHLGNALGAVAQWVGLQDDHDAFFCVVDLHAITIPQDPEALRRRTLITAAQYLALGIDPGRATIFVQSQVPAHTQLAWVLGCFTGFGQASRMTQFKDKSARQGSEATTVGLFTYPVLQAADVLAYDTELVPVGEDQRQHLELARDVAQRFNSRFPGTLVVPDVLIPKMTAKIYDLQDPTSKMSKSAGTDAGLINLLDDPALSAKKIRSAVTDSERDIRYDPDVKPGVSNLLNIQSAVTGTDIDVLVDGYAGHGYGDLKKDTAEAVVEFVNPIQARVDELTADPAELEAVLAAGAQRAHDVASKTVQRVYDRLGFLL
UniProt I6X8D2, whole entry: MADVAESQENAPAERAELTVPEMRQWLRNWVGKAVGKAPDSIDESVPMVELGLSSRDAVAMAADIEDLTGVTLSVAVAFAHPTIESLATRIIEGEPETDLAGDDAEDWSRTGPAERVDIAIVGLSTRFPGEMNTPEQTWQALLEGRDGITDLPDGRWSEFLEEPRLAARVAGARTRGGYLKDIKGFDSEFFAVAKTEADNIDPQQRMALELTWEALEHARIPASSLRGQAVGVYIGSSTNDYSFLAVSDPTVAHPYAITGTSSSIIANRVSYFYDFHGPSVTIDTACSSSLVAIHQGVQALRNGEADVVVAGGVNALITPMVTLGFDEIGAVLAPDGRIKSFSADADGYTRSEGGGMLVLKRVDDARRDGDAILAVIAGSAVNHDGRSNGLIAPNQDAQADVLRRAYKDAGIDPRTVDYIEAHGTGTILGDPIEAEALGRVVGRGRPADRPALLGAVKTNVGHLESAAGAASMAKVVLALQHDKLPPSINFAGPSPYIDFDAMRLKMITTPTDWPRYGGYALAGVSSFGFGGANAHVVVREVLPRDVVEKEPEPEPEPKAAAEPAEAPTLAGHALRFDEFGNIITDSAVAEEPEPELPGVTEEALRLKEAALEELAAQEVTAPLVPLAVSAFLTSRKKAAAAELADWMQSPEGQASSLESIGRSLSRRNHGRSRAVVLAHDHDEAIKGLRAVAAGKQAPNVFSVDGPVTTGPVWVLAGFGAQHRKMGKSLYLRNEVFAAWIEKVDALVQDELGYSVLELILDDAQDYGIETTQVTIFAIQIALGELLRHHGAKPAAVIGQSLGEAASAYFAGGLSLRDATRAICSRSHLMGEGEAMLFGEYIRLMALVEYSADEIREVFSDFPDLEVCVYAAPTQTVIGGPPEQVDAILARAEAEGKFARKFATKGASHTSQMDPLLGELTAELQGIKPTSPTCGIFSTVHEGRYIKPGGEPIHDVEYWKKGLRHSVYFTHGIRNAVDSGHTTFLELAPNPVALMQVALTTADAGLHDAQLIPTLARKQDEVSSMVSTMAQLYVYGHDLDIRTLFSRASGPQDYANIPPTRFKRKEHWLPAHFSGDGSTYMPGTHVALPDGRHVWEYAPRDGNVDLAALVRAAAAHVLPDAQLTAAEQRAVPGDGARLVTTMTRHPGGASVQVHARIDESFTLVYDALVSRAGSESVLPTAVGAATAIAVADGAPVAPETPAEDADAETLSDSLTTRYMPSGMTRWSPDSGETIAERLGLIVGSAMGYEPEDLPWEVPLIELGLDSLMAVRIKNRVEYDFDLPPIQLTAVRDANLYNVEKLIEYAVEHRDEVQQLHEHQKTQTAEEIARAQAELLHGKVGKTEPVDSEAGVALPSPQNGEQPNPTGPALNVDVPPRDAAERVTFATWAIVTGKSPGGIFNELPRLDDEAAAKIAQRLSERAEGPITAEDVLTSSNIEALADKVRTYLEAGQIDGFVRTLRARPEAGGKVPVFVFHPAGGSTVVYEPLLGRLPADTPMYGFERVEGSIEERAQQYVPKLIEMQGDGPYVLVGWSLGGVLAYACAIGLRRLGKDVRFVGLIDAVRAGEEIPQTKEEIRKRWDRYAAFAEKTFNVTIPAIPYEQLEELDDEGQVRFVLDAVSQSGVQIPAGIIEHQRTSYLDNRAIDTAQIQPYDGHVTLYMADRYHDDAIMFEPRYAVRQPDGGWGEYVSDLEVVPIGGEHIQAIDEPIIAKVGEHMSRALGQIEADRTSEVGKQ
UniProt A4I591, 1-473: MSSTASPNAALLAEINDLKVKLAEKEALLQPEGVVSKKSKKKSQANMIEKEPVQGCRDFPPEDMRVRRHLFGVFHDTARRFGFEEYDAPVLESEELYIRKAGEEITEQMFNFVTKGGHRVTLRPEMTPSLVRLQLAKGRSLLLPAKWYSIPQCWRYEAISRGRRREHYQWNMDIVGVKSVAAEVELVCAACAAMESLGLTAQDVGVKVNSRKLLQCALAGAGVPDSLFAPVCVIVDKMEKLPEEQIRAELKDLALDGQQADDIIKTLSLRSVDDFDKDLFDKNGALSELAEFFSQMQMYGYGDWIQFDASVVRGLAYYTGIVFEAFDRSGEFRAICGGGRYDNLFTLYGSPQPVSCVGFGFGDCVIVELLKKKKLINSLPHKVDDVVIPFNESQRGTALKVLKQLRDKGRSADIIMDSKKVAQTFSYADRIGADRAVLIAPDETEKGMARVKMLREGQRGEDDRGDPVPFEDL
UniProt Q8IDJ8, 1-583: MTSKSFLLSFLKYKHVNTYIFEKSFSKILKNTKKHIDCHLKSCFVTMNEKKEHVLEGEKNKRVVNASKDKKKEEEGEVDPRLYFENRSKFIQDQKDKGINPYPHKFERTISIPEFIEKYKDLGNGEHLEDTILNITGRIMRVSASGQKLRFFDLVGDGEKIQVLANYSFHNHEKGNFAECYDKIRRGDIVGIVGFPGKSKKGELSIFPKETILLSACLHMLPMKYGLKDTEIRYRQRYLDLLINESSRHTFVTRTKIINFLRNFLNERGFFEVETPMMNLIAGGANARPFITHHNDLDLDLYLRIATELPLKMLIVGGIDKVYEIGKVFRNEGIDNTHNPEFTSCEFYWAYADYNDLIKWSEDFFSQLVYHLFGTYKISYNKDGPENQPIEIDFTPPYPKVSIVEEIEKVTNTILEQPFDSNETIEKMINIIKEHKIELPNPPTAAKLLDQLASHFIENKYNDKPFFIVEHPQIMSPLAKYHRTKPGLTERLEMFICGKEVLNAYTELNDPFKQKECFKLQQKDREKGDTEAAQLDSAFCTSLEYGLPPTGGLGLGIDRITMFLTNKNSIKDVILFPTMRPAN

MtTrpRS: 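Enzyme assay of tryptophanyl-tRNA synthetase; the read-out is not stated. Target: Tryptophan-tRNA ligase, Mycobacterium tuberculosis (UniProt P9WFT3). Compounds at 10 µM. Direction is not recorded; retested compounds ran higher, which suggests that high means inhibition. Of about 65,000 compounds tested this way, about 64 (0.098%) reached 50% or more in at least one test.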
Pks13 thioesterase: 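Polyketide synthase Pks13, Mycobacterium tuberculosis (UniProt I6X8D2). Enzyme assay of the thioesterase domain of polyketide synthase 13; the read-out is not stated. Concentration: 30 µM. The record gives no direction; the compounds picked for IC50 retests had high values, so higher reads as stronger inhibition. About 67,000 compounds were tested under these conditions; 0.46% (about 300) showed 50% or more at least once.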
LiHisRS: 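Enzyme assay of histidyl-tRNA synthetase; the read-out is not stated. Target: Histidine-tRNA ligase, Leishmania infantum (UniProt A4I591). Compounds at 30 µM. Higher reads as stronger inhibition (inferred: compounds with an IC50 in retests scored well above the rest). The assay is labelled LdHisRS but filed under L. infantum. About 69,000 compounds were tested under these conditions; 0.6% (about 410) showed 50% or more at least once.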
PfKRS1: 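Enzyme assay of the cytosolic lysyl-tRNA synthetase in 384-well plates, read by luminescence. Target: Lysine-tRNA ligase, Plasmodium falciparum 3D7 (UniProt Q8IDJ8). Compounds at 30 µM. Direction is inferred from only a few compounds that gave an IC50; most scored high, so higher reads as stronger inhibition. Of about 69,000 compounds tested this way, about 49 (0.071%) reached 50% or more in at least one test.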

Values are the deposited “Percent Effect”, in %. The controls that fix the scale are not given in the record; negative values are as filed. Compounds were drawn at random from those tested, without regard to their results.

For O=C(c1ncn2c(C3CCN(CC4CC4)CC3)ccnc12)N1CCCC1 the result was MtTrpRS: 2.81%; Pks13 thioesterase: -18.72%; LiHisRS: 11.97%; PfKRS1: 5.552%.
For COCCN(Cc1cnn(C)c1)Cc1ccc(C)o1 the result was MtTrpRS: -3.027%; Pks13 thioesterase: -5.094%; LiHisRS: -3.509%; PfKRS1: -0.559%.
For Cn1cc(C2CC(=O)NC23CCN(CC2CC2)CC3)cn1 (centres unmarked) the result was MtTrpRS: 7.03%; Pks13 thioesterase: -7.189%; LiHisRS: 7.547%; PfKRS1: -3.275%.
For CCOCC(=O)NCC1CCN(Cc2ccsc2)CC1 the result was MtTrpRS: -0.5869%; Pks13 thioesterase: -10.06%; LiHisRS: 8.989%; PfKRS1: 1.291%.
For CCn1cc(CN2C[C@@H]3CCCN3C[C@@H]2CCSC)cn1 the result was Pks13 thioesterase: -6.728%; LiHisRS: 10%; PfKRS1: 1.757%.
For Cc1cccc(N2CCCC2c2nc(C)ncc2CN(C)C)n1 (centres unmarked) the result was MtTrpRS: -2.732%; Pks13 thioesterase: 7.49%; LiHisRS: 17.02%; PfKRS1: 0.4729%.
For Cc1ccc(CNC(=O)NCCCO)cc1 the result was MtTrpRS: 13.93%; Pks13 thioesterase: -28.11%; LiHisRS: 11.3%; PfKRS1: -3.29%.
For COc1cc(I)c(Cl)cc1C(=O)N(C)C the result was MtTrpRS: 1.022%; Pks13 thioesterase: -5.491%; LiHisRS: 10.53%; PfKRS1: -1.253%.
For CS(=O)(=O)c1ccc(CC(=O)N2CCN3CCNC(=O)C3C2)cc1 (centres unmarked) the result was MtTrpRS: 0.7389%; Pks13 thioesterase: -4.356%; LiHisRS: 23.26%; PfKRS1: 4.898%.
For CCn1nnc(NCc2ccc(-c3ccc(Br)cc3)o2)n1 the result was MtTrpRS: 0.9167%; Pks13 thioesterase: 31.11%; LiHisRS: 4.301%; PfKRS1: 8.1%.
For COc1cc(N2CC[C@@H]3O[C@H](C(=O)NCC4CC4)C[C@@H]32)ncn1 the result was MtTrpRS: 10.55%; Pks13 thioesterase: -47.98%; LiHisRS: -4.167%; PfKRS1: -3.515%.
For CC(C(=O)Nc1ccon1)n1ccc(C(F)(F)F)n1 (centres unmarked) the result was MtTrpRS: -0.678%; Pks13 thioesterase: -11.13%; LiHisRS: 0%; PfKRS1: 0.5665%.
For Cc1nc(CN(C)C2CCCN(c3cccnn3)C2)no1 (centres unmarked) the result was MtTrpRS: -2.798%; Pks13 thioesterase: -12.57%; LiHisRS: 13.7%; PfKRS1: 0.1507%.
For O=C1N(c2ccc(Br)cc2)Cc2n[nH]c(=O)n21 the result was MtTrpRS: 3.59%; Pks13 thioesterase: -7.52%; LiHisRS: 10.75%; PfKRS1: 3.422%.
For CC(=O)N1CCN2C[C@H](CO)[C@@H](c3ccccc3)[C@H]2C1 the result was Pks13 thioesterase: -10.45%; LiHisRS: 2.041%; PfKRS1: 3.801%.
For COCc1cc(N(C)Cc2c(C)nn(C)c2C)n2nccc2n1 the result was MtTrpRS: -1.732%; Pks13 thioesterase: 0.9185%; LiHisRS: 0%; PfKRS1: -1.54%.
For CC1=C[C@@H](CC#N)[C@H](C(C)C)C[C@H]1CC(=O)N1CCN(CCO)CC1 the result was MtTrpRS: -0.9789%; Pks13 thioesterase: -32.38%; LiHisRS: 13.89%; PfKRS1: -0.5993%.
For CC(C)CN1C[C@@H](C(=O)O)C[C@@H](C(=O)NCc2ccncc2)C1 the result was MtTrpRS: 0.983%; Pks13 thioesterase: -18.3%; LiHisRS: 4%; PfKRS1: 4.742%.
For COCC1CCN(c2nc(C(C)(C)C)nc3c2cnn3C)C1 (centres unmarked) the result was MtTrpRS: 2.051%; Pks13 thioesterase: 3.91%; LiHisRS: 30.11%; PfKRS1: 3.065%.
For Cc1cnccc1N1CCN(C(=O)CCCN2CCCCC2)CC1 the result was MtTrpRS: -1.751%; Pks13 thioesterase: -17%; LiHisRS: 11.29%; PfKRS1: 0.08381%.
For CC(C)C(NC(=O)NCC1CC1)c1nnc2n1CCC2 (centres unmarked) the result was MtTrpRS: -0.9684%; Pks13 thioesterase: -10.67%; LiHisRS: 10.59%; PfKRS1: 4.596%.
For COCCN(c1ccncc1)S(=O)(=O)c1cc(C)cc(F)c1 the result was MtTrpRS: -0.1875%; Pks13 thioesterase: -31.69%; LiHisRS: 7.937%; PfKRS1: 4.083%.
For CCS(=O)(=O)N1CCc2c(CN(C)Cc3ccco3)cncc2C1 the result was MtTrpRS: -3.253%; Pks13 thioesterase: -18.32%; LiHisRS: 11.32%; PfKRS1: 4.675%.
For Cc1noc(C)c1C(=O)N(C)C(C)c1ccncc1 (centres unmarked) the result was MtTrpRS: -1.724%; Pks13 thioesterase: -22.59%; LiHisRS: 13.95%; PfKRS1: 2.055%.
For COCCNC(=O)C1CN(Cc2ccncc2)Cc2ccnn2C1 (centres unmarked) the result was MtTrpRS: -3.045%; Pks13 thioesterase: -16.47%; LiHisRS: 20.59%; PfKRS1: 4.551%.
For COc1ccc(CC2(CO)CCN(c3cc(N)ncn3)CC2)cc1 the result was MtTrpRS: 1.069%; Pks13 thioesterase: -19.03%; LiHisRS: 15%; PfKRS1: 7.547%.
For CCOc1ccc(NC(=O)NC2CCc3nc(C)nn3C2)cc1Cl (centres unmarked) the result was MtTrpRS: 0.5093%; Pks13 thioesterase: -8.693%; LiHisRS: 10%; PfKRS1: -0.159%.
For Fc1cnc(N2CCCn3c(nnc3Cn3cccc3)C2)nc1 the result was MtTrpRS: -6.182%; Pks13 thioesterase: -3.678%; LiHisRS: 29.29%; PfKRS1: 6.253%.
For Cc1cc(CNS(C)(=O)=O)ccc1N(C)C the result was MtTrpRS: 1.817%; Pks13 thioesterase: -5.134%; LiHisRS: 20%; PfKRS1: 0.5103%.
For COCCCNC(=O)Nc1ccc(OCc2noc(C3CC3)n2)cc1 the result was MtTrpRS: 7.243%; Pks13 thioesterase: 48.27%; LiHisRS: 8.036%; PfKRS1: 1.986%.

For reference, 4 entries once more:

SMILES,MtTrpRS,Pks13 thioesterase,LiHisRS,PfKRS1
O=C1N(c2ccc(Br)cc2)Cc2n[nH]c(=O)n21,3.59%,-7.52%,10.75%,3.422%
Cc1cnccc1N1CCN(C(=O)CCCN2CCCCC2)CC1,-1.751%,-17%,11.29%,0.08381%
COc1cc(I)c(Cl)cc1C(=O)N(C)C,1.022%,-5.491%,10.53%,-1.253%
Fc1cnc(N2CCCn3c(nnc3Cn3cccc3)C2)nc1,-6.182%,-3.678%,29.29%,6.253%